Measurements: PMC5811549
These are yes or no findings as the source states them, for the method shown. Some results given as binding are weak or reduced against the parent protein; the word gives no strength.

Protein sequences, listed by entry. Tags and fused reporters are not part of them. Lines headed by an entry give the natural chain unless they say otherwise; changes in a name come on top. Chains listed by the source or under a name are the forms on record and can include a tag or linker. Residues count along the entry.
UniProt P02454: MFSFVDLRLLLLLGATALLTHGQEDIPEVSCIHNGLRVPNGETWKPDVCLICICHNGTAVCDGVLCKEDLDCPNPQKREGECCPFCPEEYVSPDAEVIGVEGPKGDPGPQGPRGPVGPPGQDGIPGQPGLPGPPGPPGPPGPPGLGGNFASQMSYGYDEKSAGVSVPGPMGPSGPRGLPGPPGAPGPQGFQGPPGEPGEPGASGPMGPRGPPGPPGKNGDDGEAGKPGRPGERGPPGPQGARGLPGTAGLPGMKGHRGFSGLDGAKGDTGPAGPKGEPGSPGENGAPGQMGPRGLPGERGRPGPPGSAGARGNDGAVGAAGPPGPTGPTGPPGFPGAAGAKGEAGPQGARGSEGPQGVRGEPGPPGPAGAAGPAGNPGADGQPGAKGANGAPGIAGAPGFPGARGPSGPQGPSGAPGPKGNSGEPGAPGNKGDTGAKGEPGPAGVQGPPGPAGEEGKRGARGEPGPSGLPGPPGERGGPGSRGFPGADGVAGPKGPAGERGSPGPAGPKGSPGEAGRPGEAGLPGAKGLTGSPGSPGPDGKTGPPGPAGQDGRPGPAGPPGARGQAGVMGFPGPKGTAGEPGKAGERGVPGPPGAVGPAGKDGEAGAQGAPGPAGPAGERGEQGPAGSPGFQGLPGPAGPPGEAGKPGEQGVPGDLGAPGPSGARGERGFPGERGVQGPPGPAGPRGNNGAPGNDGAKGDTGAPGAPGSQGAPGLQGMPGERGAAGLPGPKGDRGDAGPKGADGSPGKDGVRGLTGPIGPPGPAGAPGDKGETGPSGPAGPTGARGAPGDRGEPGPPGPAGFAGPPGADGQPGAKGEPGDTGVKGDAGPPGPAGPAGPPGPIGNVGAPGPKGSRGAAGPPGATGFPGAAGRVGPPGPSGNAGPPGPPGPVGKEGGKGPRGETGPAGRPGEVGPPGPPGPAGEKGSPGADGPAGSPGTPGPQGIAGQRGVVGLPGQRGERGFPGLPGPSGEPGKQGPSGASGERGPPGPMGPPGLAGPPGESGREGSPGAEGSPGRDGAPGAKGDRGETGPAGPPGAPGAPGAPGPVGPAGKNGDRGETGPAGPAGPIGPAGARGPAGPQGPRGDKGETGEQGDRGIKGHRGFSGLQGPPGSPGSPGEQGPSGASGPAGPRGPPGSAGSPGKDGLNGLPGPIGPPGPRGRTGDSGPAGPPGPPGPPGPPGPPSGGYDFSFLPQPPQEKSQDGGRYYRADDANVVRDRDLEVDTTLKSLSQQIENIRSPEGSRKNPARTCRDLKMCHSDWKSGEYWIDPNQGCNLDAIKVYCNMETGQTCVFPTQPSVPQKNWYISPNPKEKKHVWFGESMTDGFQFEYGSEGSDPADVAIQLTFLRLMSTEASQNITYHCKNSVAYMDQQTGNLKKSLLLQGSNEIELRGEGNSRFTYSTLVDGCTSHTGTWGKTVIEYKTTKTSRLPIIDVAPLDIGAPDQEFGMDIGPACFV
UniProt P02466: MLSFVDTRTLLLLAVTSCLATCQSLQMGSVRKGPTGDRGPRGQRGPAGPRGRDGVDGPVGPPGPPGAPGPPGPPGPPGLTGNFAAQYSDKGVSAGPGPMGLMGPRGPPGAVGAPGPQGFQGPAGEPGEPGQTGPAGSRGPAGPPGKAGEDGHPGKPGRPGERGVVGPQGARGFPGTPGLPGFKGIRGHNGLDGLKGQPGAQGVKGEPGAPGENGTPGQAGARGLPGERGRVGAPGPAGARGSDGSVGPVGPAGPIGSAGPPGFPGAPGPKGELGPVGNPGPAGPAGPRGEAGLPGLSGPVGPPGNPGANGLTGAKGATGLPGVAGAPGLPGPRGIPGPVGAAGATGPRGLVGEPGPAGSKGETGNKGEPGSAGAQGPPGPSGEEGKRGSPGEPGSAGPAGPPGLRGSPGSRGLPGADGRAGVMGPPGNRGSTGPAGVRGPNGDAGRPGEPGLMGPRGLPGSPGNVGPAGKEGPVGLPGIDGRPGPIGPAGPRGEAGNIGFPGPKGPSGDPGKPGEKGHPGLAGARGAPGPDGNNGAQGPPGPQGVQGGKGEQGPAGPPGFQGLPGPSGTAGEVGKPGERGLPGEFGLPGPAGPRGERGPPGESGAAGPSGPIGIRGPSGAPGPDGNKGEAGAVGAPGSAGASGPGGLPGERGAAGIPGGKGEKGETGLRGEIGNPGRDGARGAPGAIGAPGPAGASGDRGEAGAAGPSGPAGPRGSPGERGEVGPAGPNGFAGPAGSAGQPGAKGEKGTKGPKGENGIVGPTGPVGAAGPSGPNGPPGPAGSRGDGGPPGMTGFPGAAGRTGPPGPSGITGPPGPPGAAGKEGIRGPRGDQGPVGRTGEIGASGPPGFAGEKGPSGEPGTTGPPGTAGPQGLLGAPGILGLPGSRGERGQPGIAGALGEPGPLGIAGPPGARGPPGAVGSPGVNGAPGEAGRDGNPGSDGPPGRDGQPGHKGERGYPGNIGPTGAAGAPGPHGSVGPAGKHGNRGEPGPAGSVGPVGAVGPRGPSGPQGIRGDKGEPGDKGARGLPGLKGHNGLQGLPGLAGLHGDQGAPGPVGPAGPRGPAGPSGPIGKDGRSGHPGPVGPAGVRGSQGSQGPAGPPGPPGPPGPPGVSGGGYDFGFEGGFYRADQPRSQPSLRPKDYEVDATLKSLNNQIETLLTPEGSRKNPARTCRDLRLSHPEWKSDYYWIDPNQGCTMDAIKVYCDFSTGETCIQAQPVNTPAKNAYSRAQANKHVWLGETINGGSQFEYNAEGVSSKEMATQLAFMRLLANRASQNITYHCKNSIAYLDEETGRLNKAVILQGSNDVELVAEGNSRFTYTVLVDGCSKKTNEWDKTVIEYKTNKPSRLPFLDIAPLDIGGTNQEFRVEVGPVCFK
GST-tagged integrin α2-I domain, wild type (P17301, residues 169-365): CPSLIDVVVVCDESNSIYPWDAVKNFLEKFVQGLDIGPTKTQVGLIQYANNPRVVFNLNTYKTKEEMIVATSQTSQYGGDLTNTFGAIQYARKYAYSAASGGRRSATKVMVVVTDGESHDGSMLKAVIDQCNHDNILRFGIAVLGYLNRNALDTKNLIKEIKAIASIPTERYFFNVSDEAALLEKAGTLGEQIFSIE
GST-tagged integrin α2-I domain E152A mutant (P17301, form named): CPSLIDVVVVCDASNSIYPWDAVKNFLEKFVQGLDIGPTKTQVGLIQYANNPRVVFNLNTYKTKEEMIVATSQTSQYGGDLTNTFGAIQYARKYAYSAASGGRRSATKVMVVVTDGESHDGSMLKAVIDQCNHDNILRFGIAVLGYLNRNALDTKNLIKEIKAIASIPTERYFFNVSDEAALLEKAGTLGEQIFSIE

Biological target: rat tail collagen I (rat) (UniProt P02454+P02466)
Test: ELISA; solid-phase binding assay; collagen coated on a 96-well plate and blocked with BSA; GST-tagged I domain serially diluted in TBS, 0.05% Tween-20, 10 mg/ml BSA, 1 mM MgCl2; 1.5 h at RT; detected with anti-GST HRP conjugate; both purified

Row | Substance | binding
1 | GST-tagged integrin α2-I domain E152A mutant (from UniProt P17301 169-365) (domain or fragment) | binds
2 | GST-tagged integrin α2-I domain, wild type (from UniProt P17301 169-365) (domain or fragment) | binds
